Test results reported in PubChem BioAssay AID624297 (National Center for Advancing Translational Sciences (NCATS), 2012).
About 6,200 (1.8%) of roughly 340,000 compounds were called active. Inconclusive means that the source gave no clear call. Such entries were picked first, then a sample of the others. Calls follow the shape of the dose curve; as a rule, active = well fitted activation curve with a large enough effect; inconclusive = small, poorly fitted or top-dose-only effect; inactive = no such curve, though single readings can be large or run the other way. Where the call is inconclusive, the potency comes from a doubtful curve fit.

assay: A quantitative high throughput screen for small molecules that induce DNA re-replication in SW480 colon adenocarcinoma cells.; also: nearly all actives have a fitted effect of over 55% in size; as to re-replication activation: % of control where 0% means no effect; details: Hoechst DNA content imaging, 48 h; re-replication activation: at 46.1 µM (top of the series) unless noted
In short: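 Compounds, transferred as 23 nL by pin tool, were incubated with cells for 48 hr; DNA content per nucleus was then quantified by Hoechst staining and fluorescence plate imaging.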
Potency is read from the fitted curve at half-maximal effect.

Which “re-replication activation” value does the source give for `CCCCn1nnnc1SCC(=O)NC1CCCCC1` here?
Its value is inactive: -4.42%.

Which “re-replication activation” value does the source give for `Cc1onc(-c2c(F)cccc2Cl)c1C(=O)NC1CC1` here?
Its value is inactive: -2.35%.

Which Potency does the source give for `O=C(CN1CCC(Cc2ccccc2)CC1)NCCc1ccc(F)cc1` here?
Its Potency is inconclusive: 29.1 µM [activator, single point].

For `COc1cc2c(cc1OC)C(c1ccccc1)N(S(C)(=O)=O)CC2` (stereo not drawn), which Potency is on record?
The Potency was inconclusive: 29.1 µM [activator, partial curve, poor fit].

Which Potency does the source give for `NC(=S)N/N=C/c1ncc(C(F)(F)F)cc1Cl` here?
Its Potency is inconclusive: 3.66 µM [activator, full curve, poor fit].

For `Cn1c(SCc2cc(=O)n3cc(Br)ccc3n2)nnc1C1COc2ccccc2O1` (stereo not drawn), which “re-replication activation” value is on record?
The value was inactive: -2.03%.

With `CCCNS(=O)(=O)c1ccc(CCC(=O)N2CCN(c3ccc(F)cc3)CC2)cc1` as the compound, how does the “re-replication activation” value read?
Its value is inactive: -3.08%.

For `CC12CCC(=O)N1C(C(=O)Nc1cc(S(=O)(=O)N3CCCCCC3)ccc1OCC(F)(F)F)CS2` (stereo not drawn), which Potency is on record?
The Potency was inconclusive: 29.1 µM [activator, single point].

Which “re-replication activation” value does the source give for `CCCCCNC(=O)Cc1ccc(S(=O)(=O)N2CCOCC2)s1` here?
Its value is inactive: -3.71%.

For `COc1ccc(-c2csc(NC(=S)NC(=O)c3ccc4ccccc4c3)n2)cc1OC`, which Potency is on record?
The Potency was active: 14.6 µM.

With `CCC1(O)CC2CN(CCc3c([nH]c4ccccc34)C(C(=O)OC)(c3cc4c(cc3OC)N(C=O)C3C(O)(C(=O)OC)C(OC(C)=O)C5(CC)C=CCN6CCC43C65)C2)C1` (stereo not drawn) as the compound, how does the Potency read?
The Potency was active: 0.164 µM.

For `C/C=C(\CS(=O)(=O)c1ccccc1)S(=O)(=O)c1ccccc1`, which Potency is on record?
Its Potency is inconclusive: 29.1 µM [activator, single point].

For `O=C(Cc1ccccc1)NNC(=O)c1cnccn1`, which Potency is on record?
The Potency was inconclusive: 1.46 µM [activator, full curve, poor fit].

With `COC1CCCN(Cc2cn(C)nc2-c2ccc(Oc3ccccc3)cc2)C1` (stereo not drawn) as the compound, how does the Potency read?
The Potency was inconclusive: 0.82 µM [activator, single point].

With `O=C(NC1CCN(Cc2ccccc2)CC1)c1ccc(N2CC3CC(C2)c2cccc(=O)n2C3)c([N+](=O)[O-])c1` (stereo not drawn) as the compound, how does the Potency read?
The Potency was inconclusive: 32.6 µM [activator, single point].

Which “re-replication activation” value does the source give for `Cc1ccc(NC(=O)CSc2ccc(-c3ccccn3)nn2)cc1` here?
Its value is inactive: -1.66%.

Which Potency does the source give for `Cc1ccc2[nH]c(=O)c(C(c3nnnn3CC3CCCO3)N3CCCc4ccccc43)cc2c1` (stereo not drawn) here?
The Potency was inconclusive: 3.66 µM [activator, full curve, poor fit].

For `O=C(c1ccc([N+](=O)[O-])o1)N1CCN(c2nc3c(F)cc(F)cc3s2)CC1`, which Potency is on record?
The Potency was inconclusive: 29.1 µM [activator, single point].

Which Potency does the source give for `CC1CCCN(C(=O)c2cccc(S(=O)(=O)N3CCCC3)c2)C1` (stereo not drawn) here?
Its Potency is inconclusive: 29.1 µM [activator, single point].

With `CN(C(=O)c1ccc2c(c1)OCCO2)c1c(N)n(Cc2ccccc2)c(=O)[nH]c1=O` as the compound, how does the Potency read?
Its Potency is inconclusive: 18.4 µM [activator, partial curve, poor fit].

Which Potency does the source give for `O=C1CSC(=S)N1c1cccc(F)c1` here?
Its Potency is inconclusive: 4.61 µM [activator, full curve, poor fit].

For `COc1ccc(/C=C/C(=O)Oc2ccc(C=O)cc2OC)cc1`, which Potency is on record?
The Potency was inconclusive: 16.4 µM [activator, partial curve].

With `Cc1cc(O)c(-c2cc(C(=O)Nc3sc4c(c3C(=O)NCc3ccco3)CCC4)[nH]n2)cc1C` as the compound, how does the Potency read?
Its Potency is inconclusive: 16.4 µM [activator, partial curve, poor fit].

For `Cn1nnc(NC(=S)NC(=O)c2cc3ccccc3o2)n1`, which “re-replication activation” value is on record?
Its value is inactive: 6.32%.

For `Fc1ccc2nc(Nc3nc4cc5c(cc4s3)OCO5)sc2c1`, which “re-replication activation” value is on record?
Its value is inactive: 0.0168%.

With `O=C(Nc1cc(Cl)ccc1-n1cncn1)c1cncc(Br)c1` as the compound, how does the Potency read?
Its Potency is inconclusive: 0.291 µM [activator, partial curve, poor fit].

Which Potency does the source give for `COC(=O)NC(=C(Cl)Cl)S(=O)(=O)c1ccccc1` here?
The Potency was inconclusive: 18.4 µM [activator, single point].

Which Potency does the source give for `Cc1cccc(NC(=O)NCC(c2ccco2)N2CCCCC2)c1` (stereo not drawn) here?
Its Potency is inconclusive: 1.16 µM [activator, full curve, poor fit].

Which “re-replication activation” value does the source give for `CCOC(=O)c1sc2nc(C)nc(N3CCCCC3C)c2c1C` (stereo not drawn) here?
The value was inactive: 3.92%.

Which Potency does the source give for `CCCn1c(=O)c(C(=O)Nc2ncccc2C)c(O)c2ccccc21` here?
Its Potency is inconclusive: 29.1 µM [activator, single point].

With `CN(CC(=O)NCCN1CCOCC1)S(=O)(=O)c1ccc(F)cc1` as the compound, how does the Potency read?
The Potency was inconclusive: 20.6 µM [activator, partial curve, poor fit].

With `COc1cccc(C(C(=O)NC2CCCCC2)N(C(=O)c2csnn2)C2CC2)c1` (stereo not drawn) as the compound, how does the “re-replication activation” value read?
The value was inactive: -11.9%.

With `CC1(CCc2ccc3c(c2)OCO3)NCCc2c1[nH]c1ccccc21` (stereo not drawn) as the compound, how does the Potency read?
The Potency was inconclusive: 16.4 µM [activator, partial curve, poor fit].

Which Potency does the source give for `O=C(Cn1c(C(F)(F)F)nc2ccccc21)OCC(=O)c1c[nH]c2ccccc12` here?
Its Potency is inconclusive: 29.1 µM [activator, single point].

With `Cn1c(=O)c(C(=O)c2ccccc2)nc2ccccc21` as the compound, how does the “re-replication activation” value read?
The value was inactive: -4.4%.

With `Cc1nonc1OCCNC(=O)C12CC3CC(CC(C3)C1)C2` as the compound, how does the Potency read?
Its Potency is inconclusive: 0.731 µM [activator, full curve].

Which Potency does the source give for `CN(C)c1ccc(CNc2ccc3c(c2)ncn3C)cc1` here?
Its Potency is inconclusive: 29.1 µM [activator, single point].

With `CC(=O)NCCCc1nc2ccccc2n1Cc1c(F)cccc1Cl` as the compound, how does the “re-replication activation” value read?
The value was inactive: -9.33%.

For `O=C(NC1CCCCCC1)c1cc2c(=O)n3ccccc3nc2s1`, which Potency is on record?
The Potency was active: 18.4 µM.

With `O=c1c2cc(F)ccc2sn1-c1ccc(F)cc1` as the compound, how does the Potency read?
The Potency was inconclusive: 7.31 µM [activator, partial curve, poor fit].

For `CCN(CC)S(=O)(=O)c1cc(C(=O)Nc2ccccc2[N+](=O)[O-])ccc1Cl`, which Potency is on record?
The Potency was active: 16.4 µM.

For `CCCCCCSc1ccc([C@H]2N[C@@](CC(C)C)(C(=O)OC)[C@H]3C(=O)N(C)C(=O)[C@@H]23)cc1OC`, which Potency is on record?
The Potency was inconclusive: 11.6 µM [activator, partial curve, poor fit].

Which Potency does the source give for `O=C(c1ccc(F)cc1)C(CCCCCC(CN1CCOCC1)C(=O)c1ccc(F)cc1)CN1CCOCC1` (stereo not drawn) here?
The Potency was inconclusive: 29.1 µM [activator, single point].
